Hit rate of the full screen: of about 1,600 compounds, about 420 (26%) were called active. This list was built around the results that the source calls inconclusive (neither active nor inactive); the mix of calls is not that of the screen. The call rests on the fitted dose curve; in most records, active means well fitted inhibition curve with a large enough effect; inconclusive means small, poorly fitted or top-dose-only effect; inactive means flat fitted curve, though single readings scatter. Potencies of inconclusive entries are doubtful fits and often do not repeat.
assay: qHTS for Inhibitors of TGF-b: Cytotox Counterscreen for Cherry Picks; details: HepG2 CAGA-GFP viability, ATP luminescence, 18 h, cells stimulated with TGF-beta, 500 pg/mL; activity, negative = cytotoxicity: at 46.1 µM (top of the series); further: nearly all actives have a fitted effect of over 70% in size
In short: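 HepG2 CAGA-GFP cells (1000/well, DMEM with 1% FBS) were pin-dosed with compounds after 2 h, stimulated with TGF-beta at 500 pg/mL final for 18 h at 37 °C, and viability read by CellTiter-Glo luminescence.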
Potency means the concentration at half of the fitted maximal effect.

SMILES | Potency | activity, negative = cytotoxicity
CC(C)C(=O)NC(c1cccc([N+](=O)[O-])c1)c1ccc2cccnc2c1O (configuration not stated) | inconclusive: 0.461 µM [inhibitor, full curve, poor fit] | –
CN=c1sc2c(n1C)C(=O)c1ccccc1C2=O | active: 2.59 µM | –
CNc1c2cccc(C)c2nc2c(C(=O)NCCN(C)C)cccc12 | active: 0.517 µM | –
O=C(NCc1ccco1)c1nc2c(nnn2Cc2ccccc2Cl)c(=O)[nH]1 | inconclusive: 2.06 µM [inhibitor, partial curve, poor fit] | –
Cn1c(NCC2CCCCC2)nc2cc(-c3ccsc3)sc2c1=O | inconclusive: 29.1 µM [inhibitor, single point] | –
CNc1nc(NCc2ccc(C)cc2C)c2sccc2n1 | inconclusive: 18.4 µM [inhibitor, single point] | –
COc1cc(NC(=O)COC(=O)c2ccc([N+](=O)[O-])s2)cc(OC)c1OC | inconclusive: 23.1 µM [inhibitor, single point] | –
CCO[C@H]1OC(C(=O)Nc2ccccc2)=C[C@@H](c2ccc(C(F)(F)F)cc2)[C@@H]1CCCO | – | inactive: -29.4%
CCOC(=O)CCc1ccc(NC(=O)/C=C/c2ccc([N+](=O)[O-])o2)cc1 | active: 13 µM | –
O=C1[C@@H](Oc2ccccc2)[C@@H](c2cnc3ccccc3c2)N1c1ccccc1 | – | inactive: -7.77%
O=C(Nc1ccc2oc(-c3ccncc3)nc2c1)c1ccc([N+](=O)[O-])o1 | inconclusive: 29.1 µM [inhibitor, single point] | –
Cc1ccccc1CCNC(=O)c1ccc(Cl)c(S(=O)(=O)N2CC(C)OC(C)C2)c1 (configuration not stated) | inconclusive: 5.17 µM [inhibitor, partial curve] | –
CCOc1ccc(CCN2C(=S)N([C@@H](CC(C)C)CN3CCCC3CN3C(=S)NC[C@@H]3Cc3ccc(O)cc3)C[C@@H]2CC(C)C)cc1 (some centres not stated) | – | inactive: -16.8%
CC1Sc2ccc(S(=O)(=O)N3CCC(C(=O)Nc4ccc(Cl)cc4)CC3)cc2NC1=O (configuration not stated) | inconclusive: 6.51 µM [inhibitor, partial curve] | –
CC(=O)Nc1ccc(S(=O)(=O)N2CCN(CC(O)COc3ccc4ccccc4c3)CC2)cc1 (configuration not stated) | – | inactive: -29.2%
CC(=O)Nc1ncc(Cc2cc(Cl)ccc2Cl)s1 | – | inactive: 2.44%
CC[C@]12c3[nH]c4cc(-c5ccco5)ccc4c3CCN1C(=O)[C@@H](CC(=O)NCC13CC4CC(CC(C4)C1)C3)C[C@@H]2C(=O)N1CCN(C(=O)c2ccco2)CC1 | – | inactive: -20.3%
Cc1ccc(C(C)C)cc1NC(=O)Nc1ccc([N+](=O)[O-])cc1 | inconclusive: 20.6 µM [inhibitor, single point] | –
CC(C)(C)c1ccc(C(=O)CC(=O)c2cc(Cl)ccc2O)cc1 | inconclusive: 18.4 µM [inhibitor, partial curve] | –
O=C(Nc1ccc(F)cc1)Nc1csc2ccccc12 | inconclusive: 29.1 µM [inhibitor, single point] | –
Cn1cnnc1Sc1ccc(/C=C/C(=O)c2ccc(O)cc2)cc1[N+](=O)[O-] | active: 9.2 µM | –

SMILES | Potency | activity, negative = cytotoxicity
O=C1c2ccccc2C(=O)c2c1oc(C(F)(F)F)c2C(=O)c1ccccc1 | active: 4.11 µM | –
C/C(=N\NC(=O)c1ccccc1-n1cccc1)c1ccccn1 | inconclusive: 1.3 µM [inhibitor, partial curve] | –
CC1(C)Cc2ccccc2C2=NNC(=O)C2=N1 | active: 7.31 µM | –
COc1ccccc1Cc1c(-c2ccc(F)cc2)nc2ccc(Br)cn12 | inconclusive: 23.1 µM [inhibitor, single point] | –
CC(=O)Oc1c(I)cc(I)cc1C(=O)Nc1ccc(Cl)cc1 | active: 8.2 µM | –
COc1cccc(CN(C(=O)Cc2c[nH]c3ccccc23)C(C(=O)NC2CCCCC2)c2ccc(C)o2)c1 (configuration not stated) | inconclusive: 20.6 µM [inhibitor, single point] | –
O=C(c1ccc(CSc2nc3ccncc3[nH]2)cc1)N1CCN(c2cccc(Cl)c2)CC1 | inconclusive: 20.6 µM [inhibitor, single point] | –
Cc1ccc(NC(=O)Cc2cc(C(=O)O)c3ccccc3n2)c(C)c1 | inconclusive: 16.4 µM [inhibitor, single point] | –
Nc1ncc(Br)cc1S(=O)(=O)Nc1cc(C(F)(F)F)cc(C(F)(F)F)c1 | active: 11.6 µM | –
O=C(COC(=O)c1c2c(nc3ccccc13)/C(=C\c1cccs1)CCC2)Nc1ccccc1 | inconclusive: 8.2 µM [inhibitor, partial curve] | –
CN(Cc1cccc(Cl)c1Cl)C(=O)c1cccc(S(=O)(=O)N2CCN(Cc3ccccc3)CC2)c1 | inconclusive: 8.2 µM [inhibitor, partial curve] | –
O=C(CSc1nc(N2CCCCC2)nc(N2CCCCC2)n1)N1CCN(c2ccccc2)CC1 | – | inactive: -8.42%
COCCn1c(SCc2nc3scc(-c4ccc(Cl)cc4)c3c(=O)[nH]2)nnc1-c1cccc(C)c1 | inconclusive: 23.1 µM [inhibitor, single point] | –
Cc1ccc(-c2csc(Cc3nc(-c4cc5ccccc5oc4=O)cs3)n2)cc1 | – | inactive: -16.2%
CC(=O)Nc1ccc(NC2=C/C(=N/S(=O)(=O)c3cccs3)c3ccccc3C2=O)cc1 | active: 3.26 µM | –
O=S(=O)(Nc1cccc2ncccc12)c1cccs1 | – | inconclusive: -36.2% [inhibitor]
COc1cc(Nc2nc(-c3ccccc3)c3cc(C)ccc3n2)cc(OC)c1OC | inconclusive: 20.6 µM [inhibitor, single point] | –
COc1cc(O)cc(O)c1C(=O)/C=C/c1ccccc1 | inconclusive: 23.1 µM [inhibitor, single point] | –
COc1ccc(Cc2c(-c3cccc(Br)c3)nc3ccc(Br)cn23)c(C)c1 | inconclusive: 14.6 µM [inhibitor, partial curve] | –
O=C(Nc1cccc(Cl)c1)c1ccc(F)c(S(=O)(=O)NCc2cccs2)c1 | inconclusive: 18.4 µM [inhibitor, single point] | –
CC(=O)c1ccc(-c2cnc3c(NC=O)cc(-c4cccc(NS(C)(=O)=O)c4)cn23)cc1 | inconclusive: 2.59 µM [inhibitor, full curve] | –

A portion from further up, for reference:
SMILES | Potency | activity, negative = cytotoxicity
COc1cccc(CN(C(=O)Cc2c[nH]c3ccccc23)C(C(=O)NC2CCCCC2)c2ccc(C)o2)c1 (configuration not stated) | inconclusive: 20.6 µM [inhibitor, single point] | –
O=C(c1ccc(CSc2nc3ccncc3[nH]2)cc1)N1CCN(c2cccc(Cl)c2)CC1 | inconclusive: 20.6 µM [inhibitor, single point] | –
Cc1ccc(NC(=O)Cc2cc(C(=O)O)c3ccccc3n2)c(C)c1 | inconclusive: 16.4 µM [inhibitor, single point] | –
Nc1ncc(Br)cc1S(=O)(=O)Nc1cc(C(F)(F)F)cc(C(F)(F)F)c1 | active: 11.6 µM | –
O=C(COC(=O)c1c2c(nc3ccccc13)/C(=C\c1cccs1)CCC2)Nc1ccccc1 | inconclusive: 8.2 µM [inhibitor, partial curve] | –
CN(Cc1cccc(Cl)c1Cl)C(=O)c1cccc(S(=O)(=O)N2CCN(Cc3ccccc3)CC2)c1 | inconclusive: 8.2 µM [inhibitor, partial curve] | –
O=C(CSc1nc(N2CCCCC2)nc(N2CCCCC2)n1)N1CCN(c2ccccc2)CC1 | – | inactive: -8.42%
COCCn1c(SCc2nc3scc(-c4ccc(Cl)cc4)c3c(=O)[nH]2)nnc1-c1cccc(C)c1 | inconclusive: 23.1 µM [inhibitor, single point] | –
Cc1ccc(-c2csc(Cc3nc(-c4cc5ccccc5oc4=O)cs3)n2)cc1 | – | inactive: -16.2%
CC(=O)Nc1ccc(NC2=C/C(=N/S(=O)(=O)c3cccs3)c3ccccc3C2=O)cc1 | active: 3.26 µM | –
O=S(=O)(Nc1cccc2ncccc12)c1cccs1 | – | inconclusive: -36.2% [inhibitor]

Source: PubChem BioAssay AID720535 (National Center for Advancing Translational Sciences (NCATS), 2013)
